Test results taken from publication PMC12068301.
These are yes or no findings as the source states them, for the method shown. Binding seen in cells or lysates may run through a third protein. Some entries that bind do so weakly or less than the wild type. For some of these results: Tags and fused reporters may be left off the sequences shown.

By UniProt entry, the sequences of proteins in these tests, tags left out.
UniProt Q6A4J8: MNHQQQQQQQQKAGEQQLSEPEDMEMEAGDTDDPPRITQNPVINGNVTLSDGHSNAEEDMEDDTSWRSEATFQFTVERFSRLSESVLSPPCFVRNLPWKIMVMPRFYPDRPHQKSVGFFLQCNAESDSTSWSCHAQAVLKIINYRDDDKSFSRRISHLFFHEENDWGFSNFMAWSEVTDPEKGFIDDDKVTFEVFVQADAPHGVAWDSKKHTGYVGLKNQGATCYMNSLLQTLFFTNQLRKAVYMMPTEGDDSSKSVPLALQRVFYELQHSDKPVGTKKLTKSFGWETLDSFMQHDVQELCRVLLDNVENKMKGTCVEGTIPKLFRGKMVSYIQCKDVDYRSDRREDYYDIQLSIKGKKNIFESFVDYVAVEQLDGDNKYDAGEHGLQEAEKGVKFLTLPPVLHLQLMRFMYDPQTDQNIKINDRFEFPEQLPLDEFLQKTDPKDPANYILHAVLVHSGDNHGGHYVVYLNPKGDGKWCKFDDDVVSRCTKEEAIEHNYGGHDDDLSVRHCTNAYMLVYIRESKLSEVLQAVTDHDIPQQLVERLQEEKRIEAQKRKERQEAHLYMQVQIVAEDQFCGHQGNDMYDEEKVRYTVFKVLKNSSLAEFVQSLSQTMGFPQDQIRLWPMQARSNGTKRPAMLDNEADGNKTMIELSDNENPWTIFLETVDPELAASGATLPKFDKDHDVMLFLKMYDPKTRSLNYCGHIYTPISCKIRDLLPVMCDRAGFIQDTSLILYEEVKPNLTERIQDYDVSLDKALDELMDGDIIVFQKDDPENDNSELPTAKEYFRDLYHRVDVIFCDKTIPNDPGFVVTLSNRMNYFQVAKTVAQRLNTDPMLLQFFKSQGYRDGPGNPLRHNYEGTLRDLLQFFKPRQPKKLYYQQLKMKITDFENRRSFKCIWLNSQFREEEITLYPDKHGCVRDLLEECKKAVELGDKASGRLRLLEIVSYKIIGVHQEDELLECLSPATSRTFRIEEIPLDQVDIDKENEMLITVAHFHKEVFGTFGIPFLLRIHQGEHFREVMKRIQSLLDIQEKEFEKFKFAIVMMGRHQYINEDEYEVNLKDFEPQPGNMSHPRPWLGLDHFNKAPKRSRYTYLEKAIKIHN
UniProt P31266: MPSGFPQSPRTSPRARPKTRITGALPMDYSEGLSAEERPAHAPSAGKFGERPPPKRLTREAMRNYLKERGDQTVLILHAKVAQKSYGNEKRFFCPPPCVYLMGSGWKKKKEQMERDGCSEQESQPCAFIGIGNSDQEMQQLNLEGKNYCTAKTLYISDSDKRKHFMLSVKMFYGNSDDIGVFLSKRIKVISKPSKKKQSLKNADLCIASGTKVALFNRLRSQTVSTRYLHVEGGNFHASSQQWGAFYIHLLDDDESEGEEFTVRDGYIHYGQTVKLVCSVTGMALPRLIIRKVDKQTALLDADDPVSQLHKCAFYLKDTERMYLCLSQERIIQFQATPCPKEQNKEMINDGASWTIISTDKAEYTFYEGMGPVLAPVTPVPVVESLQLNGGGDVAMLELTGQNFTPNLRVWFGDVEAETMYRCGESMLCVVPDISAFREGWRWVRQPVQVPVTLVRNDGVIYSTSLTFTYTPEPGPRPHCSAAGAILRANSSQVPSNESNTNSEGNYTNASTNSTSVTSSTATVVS
UniProt P61961: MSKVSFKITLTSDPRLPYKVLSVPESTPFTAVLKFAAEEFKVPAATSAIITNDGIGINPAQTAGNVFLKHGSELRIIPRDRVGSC

Assays:
[1] = biological target: Myc-labeled USP7 (WT) (UniProt Q6A4J8); assay: co-IP; CD3+ T cells co-transfected with tagged WT or domain-deficient mutants (Myc-USP7 with His-RBPJ, Flag-UFL1, GFP-UFM1 or Flag-UFSP2); immunoprecipitation and immunoblot
[2] = biological target: USP7 (mouse (endogenous in primary CD3+ T cells)) (UniProt Q6A4J8); assay: co-IP; endogenous proteins; CD3+ T cell lysate with anti-IgG control or anti-USP7, -RBPJ, -UFL1, -UFM1 or -UFSP2 antibody 1 h at 4°C, Protein A/G magnetic beads 2 h at 4°C; 5% lysate as input; immunoblot
[3] = biological target: USP7 (mouse (endogenous in primary CD3+ T cells)) (UniProt Q6A4J8); assay: condition: only in CD3+ T cells with 3Q of CD36 (three N-glycosylation sites mutated); co-IP; binding of USP7 and UFL1 in CD3+ T cells with CD36 mutated at three N-glycosylation sites (3Q)
[4] = biological target: USP7 (mouse (endogenous in primary CD3+ T cells)) (UniProt Q6A4J8); assay: co-IP; endogenous proteins; CD3+ T cell lysate with anti-IgG control or anti-USP7, -RBPJ, -UFL1, -UFM1 or -UFSP2 antibody 1 h at 4°C, Protein A/G magnetic beads 2 h at 4°C; 5% lysate as input; immunoblot; remark: listed apart in the source
[5] = biological target: USP7 (mouse (endogenous in primary CD3+ T cells)) (UniProt Q6A4J8); assay: co-IP; binding of USP7 and UFL1 in Cd36-KO CD3+ T cells
[6] = biological target: USP7 (mouse (endogenous in primary CD3+ T cells)) (UniProt Q6A4J8); assay: co-IP; binding of USP7 and UFL1 in CD3+ T cells treated with Dorsomophine (10 μM), A-769662 (3 μM) or with Cd36-OE

Molecule: His-labeled RBPJ (WT) (from UniProt P31266 1-526)
- binding [1]: binds

Molecule: RBPJ (from UniProt P31266 1-526)
- binding [2]: binds

Molecule: GFP-labeled UFM1 (WT) (from UniProt P61961 1-85)
- binding [1]: binds

B1: Flag-labeled UFL1 (WT) (enzyme, UniProt Q8CCJ3 1-793)
chain: MADAWEEIRRLAADFQRAQFAESTQRLSERNCIEIVNKLISQKQLEVVHTLDGKEYITPAQISKEMRDELHVRGGRVNIVDLQQVINVDLTHIESRVSDIIKSEKHVQMVLGQLIDENYLDQLSEEVNDKLQESGQVTVSELCKAYDLPGDFLTQALTQRLGRIINGHLDLDNRGVIFTEAFVARHKARIRGLFSAITRPTPVNSLVSKYGFQEQLLYSVLEDLVSTGRLRGTVVGGRQDKAVFVPDIYSRTQSTWVDSFFRQNGYLEFDALSRLGIPDAVNYIKKRYKNTQLLFLKATCVGQGLVDQVEASVEEAISSGTWVDISPLLPSSLSVEDAAMLLQQVMRPFGKLASAIVFSDTVVVSEKFITDCTGLFSERMHQKAEKEMKNNPVHLITEEDLKQISILESVNTSKKDKKDERRKKATEGSGSVRGGGGGNAREYKIKKTKKKGRKDEDSDDESQSSHGGKKKPDITFMFQDEIEDCLRKHIQDAPEEFISELAEYLIKPLNKMYLEVVRSVFMSSTSASGTGRKRTIKDLQEEVSNLYNNIRLFEKGMKYFADDTQTALTKHLLKTVCTDITNLMFNFLASDFLMAVEEPAAITSDIRKKILSKLTEETKVALTKLHNSLNEKSIEDFLSCLDSATEACDIMVKKGDKKRERQILFQHRQALCEQLKVTEDPALILHLTAVLLFQLSTHSMLHAPGRCVPQIIAFLHSKIPEDQHTLLVKYQGLVVKQLVSQNKKTGQGEDPSSDELDKEQHDVTNATRKELQELSLSIKDLVLKSRKSSVTEE
- binding [1]: binds

B2: Flag-labeled UFSP2 (WT) (enzyme, UniProt Q99K23 1-461)
chain: MDILFRIRGGFDLAFQLAPPKEMFIKNALRQVLSDLTTKLSSDALVLRVCNSSVYLWPNSDANTGELTDSSACKNVVRFIQFDQEEDTKRKFIKKKDKKLTDTQQIVNIDLMLEISTPLGAVTPILERENEEHHYINMSLPIDAVVSVAPEESWGKVRKLLVDAILRQLVDVEKCILRYMKGTSIVVPEPLHFQLPGKKNLVTVLYPSGIPDDQLQAYRKELHDLFNLPHDRPYFKRINAYHFPDELYKDGYIRNPHTYLSPPNIEGSMICVVQGTYAYHHYMQDRIDDNGWGCAYRSLQTICSWFRHQGYTERSIPTHREIQQALVDAGDKPATFVGSRQWIGSIEVQMVLNQLIGVTSKILFVNQGSEMASQGRELANHFQNVGTPVMVGGGVLAHTILGVAWNETTGQIKFLILDPHYTGAEDLQVMLEKGWCGWKSPDFWNKDAYYNLCLPQRPNAL
- binding [1]: binds

B3: UFL1 (enzyme, UniProt Q8CCJ3 1-793)
chain: B1 chain
- binding [3]: no binding
- binding [4]: binds
- binding [5]: no binding (condition: in Cd36-KO CD3+ T cells)
- binding [6]: binds

B4: UFSP2 (enzyme, UniProt Q99K23 1-461)
chain: B2 chain
- binding [4]: binds
